Measured values published in article PMC3902928, “Nuclear ubiquitination by FBXL5 modulates Snail1 DNA binding and stability” (Nucleic Acids Research, 2013).

Amino acid sequences for entries named in this document (tags omitted). A change or cut given only in a name is not applied to a line headed by its entry.
UniProt Q02085: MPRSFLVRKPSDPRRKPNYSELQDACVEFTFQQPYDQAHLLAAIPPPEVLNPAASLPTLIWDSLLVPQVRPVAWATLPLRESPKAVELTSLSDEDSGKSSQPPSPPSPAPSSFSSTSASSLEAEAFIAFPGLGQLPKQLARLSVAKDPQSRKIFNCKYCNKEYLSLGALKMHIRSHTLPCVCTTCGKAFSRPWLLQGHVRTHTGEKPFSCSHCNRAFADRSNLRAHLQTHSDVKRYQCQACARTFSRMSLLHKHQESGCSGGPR

Columns and labels:
GST-Snail1-HA [1] = molecular target: GST-Snail1-HA (UniProt Q02085); assay: competition with a labelled probe; details: cold mutant competitor against 32P wt E-box 1 probe; EMSA as described in ref 22; pH and temperature not given; recombinant protein; residues 1-264; protein details: N-term GST, C-term HA; label: unlabelled competitor
[2] = molecular target: GST-Snail1-HA polyubiquitinated in vitro by SCF-FBXL5 (UniProt Q02085); assay: EMSA; details: ubiquitinated Snail1 versus same reaction without E1, E2 and ubiquitin; EMSA as described in ref 22; pH and temperature not given; recombinant protein; residues 1-264; protein details: N-term GST, C-term HA; label: 32P
GST-Snail1-HA [3] = molecular target: GST-Snail1-HA (UniProt Q02085); assay: EMSA; details: EMSA as described in ref 22, pH and temperature not given, recombinant protein, residues 1-264, protein details: N-term GST, C-term HA, label: 32P

GGCTGAGGGTTAACCTACCGCCACAGCC (double strand) [E-box 1 mutated]
binding result (GST-Snail1-HA [1]): no binding

GGCTGAGGGTTCACCTGCCGCCACAGCC (double strand) [E-cadherin promoter E-box 1 probe]
binding result [2]: binds more weakly | binding result (GST-Snail1-HA [3]; SCF-FBXL5 present, no E1/E2/ubiquitin, binding not substantially decreased): binds | binding result (GST-Snail1-HA [3]; supershift with anti-HA, competed by cold wt probe): binds

Construct, isoform or probe ends are uncertain for at least one entry. For some of these results: No signal at the amounts used counts as a negative. For some of these results: The comparison behind a weaker result is the experiment's own reference, which may not be listed here.
